Results are given in words; binding and its absence hold for the method and conditions named. In cells and extracts the contact can be indirect. Some results given as binding are weak or reduced against the parent protein; the word gives no strength.
Biological target: T1, p-ATF2 (phosphorylated activating transcription factor 2) (human (endogenous in H1299)), P15336
T1 chain: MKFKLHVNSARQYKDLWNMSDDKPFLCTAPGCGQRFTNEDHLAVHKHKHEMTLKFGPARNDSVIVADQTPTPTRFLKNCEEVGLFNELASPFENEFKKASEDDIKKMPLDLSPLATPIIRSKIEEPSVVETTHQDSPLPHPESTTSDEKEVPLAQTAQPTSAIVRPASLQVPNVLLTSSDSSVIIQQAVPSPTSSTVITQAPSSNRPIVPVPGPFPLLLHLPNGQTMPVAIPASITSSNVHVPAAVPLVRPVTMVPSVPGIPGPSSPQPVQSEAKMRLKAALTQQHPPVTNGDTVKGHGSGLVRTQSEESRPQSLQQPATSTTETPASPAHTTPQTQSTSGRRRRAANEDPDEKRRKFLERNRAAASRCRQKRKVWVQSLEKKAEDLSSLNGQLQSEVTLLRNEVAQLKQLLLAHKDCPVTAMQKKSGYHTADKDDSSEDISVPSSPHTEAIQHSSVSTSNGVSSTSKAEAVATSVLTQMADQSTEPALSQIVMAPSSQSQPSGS
Test: co-IP; nuclear proteins (25 ug) of ANKRD49-OE or LV5 (vector) H1299 cells, precleared with Protein A/G Agarose; rabbit anti-ATF2 or normal rabbit IgG, 4 °C 12 h; Protein A/G PLUS Agarose; bound proteins separated by SDS-PAGE
Conditions: remark: other sources report otherwise

binding: binds
B1: p-c-Jun (phosphorylated c-Jun), P05412 1-331 (protein)
chain: MTAKMETTFYDDALNASFLPSESGPYGYSNPKILKQSMTLNLADPVGSLKPHLRAKNSDLLTSPDVGLLKLASPELERLIIQSSNGHITTTPTPTQFLCPKNVTDEQEGFAEGFVRALAELHSQNTLPSVTSAAQPVNGAGMVAPAVASVAGGSGSGGFSASLHSEPPVYANLSNFNPGALSSGGGAPSYGAAGLAFPAQPQQQQQPPHHLPQQMPVQHPRLQALKEEPQTVPEMPGETPPLSPIDMESQERIKAERKRMRNRIAASKCRKRKLERIARLEEKVKTLKAQNSELASTANMLREQVAQLKQKVMNHVNSGCQLMLTQQLQTF
modifications: here or on the partner: phosphorylated (p-c-Jun); sites not stated; phosphorylated (p-ATF2); sites not stated

Source: PMC10644579
